Results published in paper PMC7052193, “Nanobody-enabled monitoring of kappa opioid receptor states” (Nature Communications, 2020).

Molecular target: ETA-KOR chimera-Rluc (human)
Test: FRET or BRET; kinetic BRET between ETA-KOR-Rluc and Nb6-mVenus in HEK 293T cells; 10 µM Endothelin-3 added, then the antagonist CI 1020; only the binder purified

binding: binds
Binder: CTCFTYKDKECVYYCHLDIIW (peptide, UniProt P14138 97-117) [Endothelin-3]

No constants are given. Whether binding was seen depends on the method and setting. In cells and extracts the contact can be indirect. A result given as binding can be weak or reduced; the word gives no strength.
